The whole screen tested about 53,000 sequences, of which about 3,700 (7%) were called active.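 Rule for the calls: active = gene knockdowns whose robust z-score for IL-1 alpha signal is at least 2 or at most -2, so actives lie on both sides; inactive = the rest.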 The list shows a part of the results.
Experiment: Components of the Cytosolic LPS Sensing Pathway: Gene Identification via Genome-wide siRNA Screen;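 note: robust z of the log signal after scaling to non-targeting control siRNA wells of the plate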
Conditions: RAW264.7 macrophages, IL-1a HTRF, actives lie on both sides, screened at 100 nM (by protocol), cells primed 5 h with Pam3CSK4 first
Summary of the method: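 Three distinct siRNAs per gene were tested singly at 100 nM in RAW264.7 macrophages. Following Pam3CSK4 priming and 24 hour LipidA transfection, IL-1a secretion was read by HTRF.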

| Sequence | z-score |
| --- | --- |
| GCUACAUUUACAAUGGAUUTT against Fam160a1 | inactive: 1.26 |
| GGCCAAGCACGAUAAAUACTT against Stub1 | inactive: -1.08 |
| GCUUUCAUAGCUGGAAACCTT against Olfr173 | inactive: 0.452 |
| CCACCAUCGUUACGUACCATT against Stt3a | inactive: -0.571 |
| GGAUAAGAUCAAUGCCCUCTT against Rplp1 | inactive: 0.27 |
| GGGUUUCCUACAGAGUACCTT against Amer3 | inactive: -0.845 |
| GCAACGACAAACGAAGUGATT against Cdx2 | inactive: 0.307 |
| CCCAAUAUGCAUAAAACAATT against Azi2 | inactive: -0.472 |
| GGCUGUCCAUAUCAUCUACTT against Cxcr4 | inactive: 0.673 |
| GGGUGAGCUCACGUUCUUUTT against Trim50 | inactive: -0.519 |
| GGUGUUCUGUAUCUUGUUCTT against Ndn | inactive: 0.572 |
| GGUUUGACUAUUUCAGUGATT against Klrb1c | inactive: 0.251 |
| GGCUGAAGACAAAACCUGUTT against Zfp418 | inactive: 1.28 |
| CCCGAACAGAUCUUGUCGATT against Hoxd10 | inactive: -0.362 |
| CGCUAUUUGAAAUCUCCAATT against Rgs9 | inactive: 0.232 |
| CCGUCGUGGGUGAUAUCAUTT against 2310022A10Rik | inactive: -0.0389 |
| GGAGUCUGUCUUAUCAUUUTT against Bmerb1 | inactive: 1.73 |
| GCUUUGAACGGCGAUAUCATT against Wdtc1 | inactive: -0.119 |
| GGAAGGACCACGACUCAUATT against Sult2a2 | inactive: -0.507 |
| CCAAACAACCAGCUAAUAUTT against Mia3 | inactive: -0.375 |
| GCUGGGUAACCGCUAUCAATT against Ubtd1 | inactive: 1.85 |
| GCAACAAAGGUGCCGAAACTT against B330016D10Rik | inactive: 0.292 |
| CCUACGUGAUCAACAAGCATT against Fxn | inactive: 0.682 |

| Sequence | z-score |
| --- | --- |
| GCCCUCAGAAGACGACGAUTT against Lat2 | inactive: 0.977 |
| GCCGUAUUUUGCUUGUUUCTT against Gpr35 | inactive: 1.86 |
| GGCAUGGAAUGAGCUUUUCTT against Nr2e3 | active: 3.83 |
| GGGCCAUGAUAGGACACACTT against Nme4 | active: 2.97 |
| GGGAAUGGCACCAUUUUCUTT against Pbp2 | inactive: 0.729 |
| GGAGCUCUGUCAUGAGUUUTT against Colgalt2 | inactive: -0.239 |
| GGGACUUCAUUGCUACUAATT against B9d2 | inactive: 1.39 |
| CCCUCUACACUAUACCACATT against Olfr347 | inactive: -0.498 |
| GGAGCUGUGAGCAUUACUGTT against Cenpm | inactive: -1.89 |
| GGUUGUGCUGAUAUUUUACTT against Lmbr1l | inactive: 0.248 |
| GGGAUAAAAACCAUGGUUUTT against Pramel27 | inactive: 0.113 |
| GCGUGGUGUAUUUGAAUCATT against Ch25h | active: 2.31 |
| GGUAGUGAAAAUGAAGAGUTT against Gtf2h1 | inactive: 0.892 |
| GCAUUCAAUUCUCUAUGGUTT against Cybc1 | inactive: 0.674 |
| GGUGUUUGAAAAGAAGAACTT against Tmcc2 | inactive: 0.71 |
| GGGUUUUGCCUUUGUCUAUTT against Supt4a | inactive: -0.517 |
| GGUUGCCAUAGCUUCUCGGTT against Abcg1 | inactive: -1.1 |
| CCAAGUACUUGAGAGAGACTT against Creb3l1 | inactive: -1.06 |
| GGCGAGGUACUUCCUACCUTT against Nipa1 | inactive: 1.28 |
| CCACCUCAAGAUAUGGAUGTT against Ppp6r3 | inactive: -0.201 |
| GCAUCAAUAUCAUUAUUCCTT against Olfr917 | inactive: -0.356 |
| GGACCUUAAGAGAUAUCAATT against Acsm4 | active: 2.9 |
| CCUUCAUGAGUCCUCUUCATT against Gaa | active: -2.08 |

Reprinted at random: 2 entries already listed

| Sequence | z-score |
| --- | --- |
| GGACCUUAAGAGAUAUCAATT against Acsm4 | active: 2.9 |
| CCAAGUACUUGAGAGAGACTT against Creb3l1 | inactive: -1.06 |

The list continues:

| Sequence | z-score |
| --- | --- |
| CGAAUGCUUAUUUAGGUUGTT against Kpna4 | inactive: -0.387 |
| GGUGAAAAGAUCAGAAUACTT against Fahd1 | inactive: -1.03 |
| CCUUGUGUCACUACCCACATT against Nr5a1 | inactive: -1.22 |
| GCACACAUGUAGUCUUAUATT against Hars2 | inactive: -0.196 |
| GGGUUGAUUGACGAAGCCATT against Fga | inactive: -1.75 |
| CGGCACCUAUGAGUCUUACTT against Cyp4x1 | active: 2.13 |
| CCCUCAUAGUAACAGGAUGTT against Gm5069 | inactive: 1.24 |
| GGUCUGAUAACUCUGGAGGTT against Snf8 | inactive: -0.0859 |
| CGAGCACCUAUUCAUCAUATT against Tdo2 | inactive: 0.889 |
| GCAUGAUGUGGAGACAAGATT against Lce3b | inactive: 0.295 |
| GGUGAUCCUCAUAUUGGCCTT against Npy2r | inactive: -0.521 |
| CCUAUUUUUUCUCCACUGATT against Sntg1 | inactive: -0.533 |
| GGAUUAGGAAACGUGUAUUTT against Kdm3b | inactive: -1.11 |
| GCGUAUAUAAUUGAGGACUTT against Zfhx4 | inactive: -0.166 |
| GGAGUUCCUUCAGCAAUAUTT against Sdad1 | inactive: -0.281 |
| GGACUUAGAUCGGAUCAGUTT against Mdm1 | inactive: -1.53 |
| GGUGACUAGAAAAAUGGAUTT against Cd1d1 | inactive: 0.528 |
| GGACAGUAUGGAAAAGUAUTT against Map3k4 | inactive: -0.529 |
| AGGGCACAAAAGGUGACAATT against Rph3al | inactive: -0.887 |
| GCUUAGCCUCGGAAUGUGGTT against Trappc6a | inactive: 0.139 |
| GGUACUUAUGUGGAUUGGATT against Rint1 | inactive: -0.272 |
| CCAUUGCUGUUGUGGUUGATT against H2-Q7 | inactive: 0.277 |
| GGACAUGAAGUUGUGUGAGTT against Trim26 | inactive: -0.243 |

Part of the list above, reformatted:
Sequence,z-score
CCCAAUAUGCAUAAAACAATT against Azi2,inactive: -0.472
GGUGUUCUGUAUCUUGUUCTT against Ndn,inactive: 0.572
GGGUUUUGCCUUUGUCUAUTT against Supt4a,inactive: -0.517

Source: PubChem BioAssay AID1508600 (Functional Genomics Laboratory (NCATS/FGL), 2020)
